± gives the standard deviation of the averaged measurements. Differences between knockout arms are mostly noise.
Test system: HCC-38
Experiment: relative cell number vs DMSO control (72 h) (% of DMSO); higher = less growth inhibition (more cells)
Description: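 QMAP-Seq: a pool of 5 breast cancer cell lines (ZR-75-1, SKBR3, HCC-38, MDA-MB-231, BT-20), each carrying 12 doxycycline-inducible Cas9 sgRNA perturbations (11 knockouts plus non-targeting sgNT), was treated with compounds for 72 h at four 10-fold doses (10 nM-10 uM or 1 nM-1 uM range). Barcodes were amplified and sequenced, and cell number was interpolated from 293T spike-in standard curves. The result is expressed as % of the median of DMSO wells. Two biological replicates.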

[1] = sgRNA knockout: sgATF3, 1000 nM
[2] = sgRNA knockout: sgATF3, 10000 nM
[3] = sgRNA knockout: sgATF4, 1000 nM
[4] = sgRNA knockout: sgATF4, 10000 nM
[5] = sgRNA knockout: sgATF6, 1000 nM
[6] = sgRNA knockout: sgATF6, 10000 nM
[7] = sgRNA knockout: sgATG7, 1000 nM
[8] = sgRNA knockout: sgATG7, 10000 nM
[9] = sgRNA knockout: sgERN1, 1000 nM
[10] = sgRNA knockout: sgERN1, 10000 nM
[11] = sgRNA knockout: sgHSF1, 1000 nM
[12] = sgRNA knockout: sgHSF1, 10000 nM
[13] = sgRNA knockout: sgHSF2, 1000 nM
[14] = sgRNA knockout: sgHSF2, 10000 nM
[15] = sgRNA knockout: sgKEAP1, 100 nM
[16] = sgRNA knockout: sgKEAP1, 1000 nM
[17] = sgRNA knockout: sgKEAP1, 10000 nM
[18] = sgRNA knockout: sgNFE2L2, 10 nM
[19] = sgRNA knockout: sgNFE2L2, 100 nM
[20] = sgRNA knockout: sgNFE2L2, 1000 nM
[21] = sgRNA knockout: sgNFE2L2, 10000 nM
[22] = sgRNA knockout: sgSLC35F2, 10 nM
[23] = sgRNA knockout: sgSLC35F2, 100 nM
[24] = sgRNA knockout: sgSLC35F2, 1000 nM
[25] = sgRNA knockout: sgSLC35F2, 10000 nM
[26] = sgRNA knockout: sgXBP1, 1000 nM
[27] = sgRNA knockout: sgXBP1, 10000 nM

Compound `Cc1nc(Nc2n[nH]c3c2CN(C(=O)N[C@H](CN(C)C)c2ccccc2)C3(C)C)c2sccc2n1` has a relative cell number (sgRNA knockout: sgATF3, 10 nM) of 62.5 ± 5.1, a relative cell number (sgRNA knockout: sgATF3, 100 nM) of 51.4 ± 4.6 and a relative cell number [1] of 28.5 ± 1.5. For the same compound, the relative cell number [2] was 13.5 ± 1.4, the relative cell number (sgRNA knockout: sgATF4, 10 nM) was 64.2 ± 7.4 and the relative cell number (sgRNA knockout: sgATF4, 100 nM) was 53.1 ± 4.3. For the same compound, the relative cell number [3] was 28.9 ± 1.4, the relative cell number [4] was 14.3 ± 2.5 and the relative cell number (sgRNA knockout: sgATF6, 10 nM) was 68.8 ± 1.7. The relative cell number (sgRNA knockout: sgATF6, 100 nM) was 56.4 ± 5, the relative cell number [5] was 30 ± 8.6 and the relative cell number [6] was 14.4 ± 1.4. For the same compound, the relative cell number (sgRNA knockout: sgATG7, 10 nM) was 71.9 ± 15, the relative cell number (sgRNA knockout: sgATG7, 100 nM) was 54.6 ± 3.6 and the relative cell number [7] was 28.6 ± 1.9. It also gave a relative cell number [8] of 15.4 ± 6.6, a relative cell number (sgRNA knockout: sgERN1, 10 nM) of 68.3 ± 2.8 and a relative cell number (sgRNA knockout: sgERN1, 100 nM) of 54.2 ± 4.4. For the same compound, the relative cell number [9] was 28.9 ± 3.6, the relative cell number [10] was 14.1 ± 2.5 and the relative cell number (sgRNA knockout: sgHSF1, 10 nM) was 71.9 ± 4.4. For the same compound, the relative cell number (sgRNA knockout: sgHSF1, 100 nM) was 46.6 ± 7.8, the relative cell number [11] was 25.6 ± 7.4 and the relative cell number [12] was 17.7 ± 3. The relative cell number (sgRNA knockout: sgHSF2, 10 nM) was 68.1 ± 5.1, the relative cell number (sgRNA knockout: sgHSF2, 100 nM) was 56.7 ± 1.1 and the relative cell number [13] was 30.4 ± 5.3. The relative cell number [14] was 12.1 ± 5, the relative cell number (sgRNA knockout: sgKEAP1, 10 nM) was 75.3 ± 13 and the relative cell number [15] was 49.1 ± 5.7. It also gave a relative cell number [16] of 28.2 ± 7.2, a relative cell number [17] of 11.9 ± 0.83 and a relative cell number [18] of 63.5 ± 8.8. For the same compound, the relative cell number [19] was 51.9 ± 4.2, the relative cell number [20] was 33.8 ± 3.7 and the relative cell number [21] was 11.9 ± 4.7. For the same compound, the relative cell number [22] was 57.3 ± 0.64, the relative cell number [23] was 49.4 ± 5 and the relative cell number [24] was 26.9 ± 3.3. For the same compound, the relative cell number [25] was 16.1 ± 2.6, the relative cell number (sgRNA knockout: sgXBP1, 10 nM) was 69.7 ± 9 and the relative cell number (sgRNA knockout: sgXBP1, 100 nM) was 52.4 ± 2.4. The relative cell number [26] was 28.39 ± 0.11 and the relative cell number [27] was 13.9 ± 3.7.

Work on `CCCS(=O)(=O)Nc1ccc(F)c(C(=O)c2c[nH]c3ncc(Cl)cc23)c1F` [PLX4720] yielded a relative cell number (sgRNA knockout: sgATF3, 10 nM) of 93.2 ± 7.7, a relative cell number (sgRNA knockout: sgATF3, 100 nM) of 121 ± 4.1 and a relative cell number [1] of 106 ± 6.2. The relative cell number [2] was 102 ± 3.1, the relative cell number (sgRNA knockout: sgATF4, 10 nM) was 96.5 ± 2.7 and the relative cell number (sgRNA knockout: sgATF4, 100 nM) was 119 ± 15. The relative cell number [3] was 111 ± 29, the relative cell number [4] was 97.9 ± 16 and the relative cell number (sgRNA knockout: sgATF6, 10 nM) was 99.3 ± 3.7. For the same compound, the relative cell number (sgRNA knockout: sgATF6, 100 nM) was 93.2 ± 3, the relative cell number [5] was 122 ± 4.3 and the relative cell number [6] was 117 ± 21. For the same compound, the relative cell number (sgRNA knockout: sgATG7, 10 nM) was 91.8 ± 6, the relative cell number (sgRNA knockout: sgATG7, 100 nM) was 117 ± 3.8 and the relative cell number [7] was 114 ± 23. It also gave a relative cell number [8] of 95.4 ± 6.1, a relative cell number (sgRNA knockout: sgERN1, 10 nM) of 97.8 ± 14 and a relative cell number (sgRNA knockout: sgERN1, 100 nM) of 109 ± 3.2. It also gave a relative cell number [9] of 113 ± 20, a relative cell number [10] of 108 ± 6.7 and a relative cell number (sgRNA knockout: sgHSF1, 10 nM) of 102 ± 6.4. The relative cell number (sgRNA knockout: sgHSF1, 100 nM) was 106 ± 5.5, the relative cell number [11] was 108 ± 10 and the relative cell number [12] was 126 ± 35. It also gave a relative cell number (sgRNA knockout: sgHSF2, 10 nM) of 99.1 ± 2.6, a relative cell number (sgRNA knockout: sgHSF2, 100 nM) of 106 ± 14 and a relative cell number [13] of 118 ± 12. The relative cell number [14] was 106 ± 2.2, the relative cell number (sgRNA knockout: sgKEAP1, 10 nM) was 95.1 ± 12 and the relative cell number [15] was 97.7 ± 9. It also gave a relative cell number [16] of 97 ± 18, a relative cell number [17] of 110 ± 5.3 and a relative cell number [18] of 96.5 ± 14. For the same compound, the relative cell number [19] was 121 ± 9.2, the relative cell number [20] was 105 ± 20 and the relative cell number [21] was 93.7 ± 9.9. For the same compound, the relative cell number [22] was 93.3 ± 9.1, the relative cell number [23] was 108 ± 6.5 and the relative cell number [24] was 104 ± 35. For the same compound, the relative cell number [25] was 101 ± 12, the relative cell number (sgRNA knockout: sgXBP1, 10 nM) was 96.3 ± 12 and the relative cell number (sgRNA knockout: sgXBP1, 100 nM) was 112 ± 1.8. The relative cell number [26] was 109 ± 20 and the relative cell number [27] was 94.4 ± 15.

Compound `C[C@H]1CCC/C=C/[C@@H]2C[C@H](O)C[C@H]2[C@H](O)/C=C/C(=O)O1` [BrefeldinA] has a relative cell number (sgRNA knockout: sgATF3, 10 nM) of 91.4 ± 12, a relative cell number (sgRNA knockout: sgATF3, 100 nM) of 56.1 ± 6.3 and a relative cell number [1] of 38.8 ± 13. It also gave a relative cell number [2] of 25.1 ± 0.28, a relative cell number (sgRNA knockout: sgATF4, 10 nM) of 95.6 ± 19 and a relative cell number (sgRNA knockout: sgATF4, 100 nM) of 46.8 ± 2.1. It also gave a relative cell number [3] of 37.4 ± 12, a relative cell number [4] of 24.1 ± 3.3 and a relative cell number (sgRNA knockout: sgATF6, 10 nM) of 89.8 ± 19. For the same compound, the relative cell number (sgRNA knockout: sgATF6, 100 nM) was 49.4 ± 4.6, the relative cell number [5] was 44.1 ± 14 and the relative cell number [6] was 28.5 ± 8.7. The relative cell number (sgRNA knockout: sgATG7, 10 nM) was 88.9 ± 16, the relative cell number (sgRNA knockout: sgATG7, 100 nM) was 52.3 ± 2.5 and the relative cell number [7] was 35.1 ± 15. The relative cell number [8] was 25.7 ± 3.7, the relative cell number (sgRNA knockout: sgERN1, 10 nM) was 97.2 ± 26 and the relative cell number (sgRNA knockout: sgERN1, 100 nM) was 61.37 ± 0.53. It also gave a relative cell number [9] of 37.5 ± 9.3, a relative cell number [10] of 22.64 ± 0.038 and a relative cell number (sgRNA knockout: sgHSF1, 10 nM) of 97.3 ± 13. The relative cell number (sgRNA knockout: sgHSF1, 100 nM) was 44.4 ± 20, the relative cell number [11] was 32.9 ± 6.7 and the relative cell number [12] was 22.7 ± 12. For the same compound, the relative cell number (sgRNA knockout: sgHSF2, 10 nM) was 92 ± 3.7, the relative cell number (sgRNA knockout: sgHSF2, 100 nM) was 56.8 ± 3.8 and the relative cell number [13] was 39.6 ± 8.7. The relative cell number [14] was 23.3 ± 6.6, the relative cell number (sgRNA knockout: sgKEAP1, 10 nM) was 87.9 ± 13 and the relative cell number [15] was 50.3 ± 15. It also gave a relative cell number [16] of 36.7 ± 0.64, a relative cell number [17] of 28.1 ± 8.5 and a relative cell number [18] of 88.1 ± 7.7. The relative cell number [19] was 51.6 ± 9.3, the relative cell number [20] was 36.6 ± 13 and the relative cell number [21] was 19.4 ± 2.4. The relative cell number [22] was 93.5 ± 15, the relative cell number [23] was 57.9 ± 8.5 and the relative cell number [24] was 37.7 ± 17. It also gave a relative cell number [25] of 23 ± 6.6, a relative cell number (sgRNA knockout: sgXBP1, 10 nM) of 96.7 ± 21 and a relative cell number (sgRNA knockout: sgXBP1, 100 nM) of 54.4 ± 14. The relative cell number [26] was 37.8 ± 8 and the relative cell number [27] was 22.8 ± 5.3.

— the supplement of paper PMC7661543
